Reference: US20240209062A1 (INVETX, published 2024)
Results are given in words; binding and its absence hold for the method and conditions named. Some results given as binding are weak or reduced against the parent protein; the word gives no strength. Where a sequence is shown, tags or fusion partners need not be part of it.

By UniProt entry, the sequences of proteins in these tests, tags left out. Where a name states a change or a piece, a line headed by the entry shows the natural chain unless it says otherwise.
UniProt Q5MGS7: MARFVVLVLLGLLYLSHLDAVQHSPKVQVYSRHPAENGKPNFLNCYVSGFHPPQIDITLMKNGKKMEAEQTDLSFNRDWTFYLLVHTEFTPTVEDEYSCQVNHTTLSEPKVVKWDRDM

B1: IgG with feline IgG1a Fc variant S252Y, T286E (antibody)
heavy: DVQLVESGGDLVKPGGSLRLTCVASGLSLTSDSMSWVRQAPGKGLQWVSTLWSNRGTYYTDSVKGRFTISKDNAENTLYLQMNNLKTEDTATYYCASIYYYEADYLHWYFDFWGQGALVTVSSASTTAPSVFPLAPSCGTTSGATVALACLVLGYFPEPVTVSWNSGALTSGVHTFPAVLQASGLYSLSSMVTVPSSRWLSDTFTCNVAHPPSNTKVDKTVRKTDHPPGPKPCDCPKCPPPEAAGGPSIFIFPPKPKDTLYISRTPEVTCLVVDLGPDDSDVQITWFVDNTQVYEAKTSPREEQFNSTYRVVSVLPILHQDWLKGKEFKCKVNSKSLPSPIERTISKAKGQPHEPQVYVLPPAQEELSRNKVSVTCLIKSFHPPDIAVEWEITGQPEPENNYRTTPPQLDSDGTYFVYSKLSVDRSHWQRGNTYTCSVSHEALHSHHTQKSLTQSPG
light: EIQMTQSPTSLSASVGDRVTITCRASEGIANNLSWYQQTPGKAPKLLIYATSNLHSGVPSRFSGSGSGTDFTLTISSLQPEDFATYYCQQGFKWPLTFGGGTKLEITRSDAQPSVFLFQPSLDELHTGSASIVCILNDFYPKEVNVKWKVDGVVQNKGIQESTTEQNSKDSTYSLSSTLTMSSTEYQSHEKFSCEVTHKSLASTLVKSFNRSECQRE
notes: IgG1a constant domain with MALA mutations (M234A, L244A as printed); variable domains from WO 2023/97275
B2: IgG with feline IgG1a Fc variant S428L (antibody)
heavy: DVQLVESGGDLVKPGGSLRLTCVASGLSLTSDSMSWVRQAPGKGLQWVSTLWSNRGTYYTDSVKGRFTISKDNAENTLYLQMNNLKTEDTATYYCASIYYYEADYLHWYFDFWGQGALVTVSSASTTAPSVFPLAPSCGTTSGATVALACLVLGYFPEPVTVSWNSGALTSGVHTFPAVLQASGLYSLSSMVTVPSSRWLSDTFTCNVAHPPSNTKVDKTVRKTDHPPGPKPCDCPKCPPPEAAGGPSIFIFPPKPKDTLSISRTPEVTCLVVDLGPDDSDVQITWFVDNTQVYTAKTSPREEQFNSTYRVVSVLPILHQDWLKGKEFKCKVNSKSLPSPIERTISKAKGQPHEPQVYVLPPAQEELSRNKVSVTCLIKSFHPPDIAVEWEITGQPEPENNYRTTPPQLDSDGTYFVYSKLSVDRSHWQRGNTYTCSVLHEALHSHHTQKSLTQSPG
light: EIQMTQSPTSLSASVGDRVTITCRASEGIANNLSWYQQTPGKAPKLLIYATSNLHSGVPSRFSGSGSGTDFTLTISSLQPEDFATYYCQQGFKWPLTFGGGTKLEITRSDAQPSVFLFQPSLDELHTGSASIVCILNDFYPKEVNVKWKVDGVVQNKGIQESTTEQNSKDSTYSLSSTLTMSSTEYQSHEKFSCEVTHKSLASTLVKSFNRSECQRE
notes: as for B1
B3: IgG with feline IgG1a Fc variant S428L, I377L (antibody)
heavy: DVQLVESGGDLVKPGGSLRLTCVASGLSLTSDSMSWVRQAPGKGLQWVSTLWSNRGTYYTDSVKGRFTISKDNAENTLYLQMNNLKTEDTATYYCASIYYYEADYLHWYFDFWGQGALVTVSSASTTAPSVFPLAPSCGTTSGATVALACLVLGYFPEPVTVSWNSGALTSGVHTFPAVLQASGLYSLSSMVTVPSSRWLSDTFTCNVAHPPSNTKVDKTVRKTDHPPGPKPCDCPKCPPPEAAGGPSIFIFPPKPKDTLSISRTPEVTCLVVDLGPDDSDVQITWFVDNTQVYTAKTSPREEQFNSTYRVVSVLPILHQDWLKGKEFKCKVNSKSLPSPIERTISKAKGQPHEPQVYVLPPAQEELSRNKVSVTCLIKSFHPPDLAVEWEITGQPEPENNYRTTPPQLDSDGTYFVYSKLSVDRSHWQRGNTYTCSVLHEALHSHHTQKSLTQSPG
light: EIQMTQSPTSLSASVGDRVTITCRASEGIANNLSWYQQTPGKAPKLLIYATSNLHSGVPSRFSGSGSGTDFTLTISSLQPEDFATYYCQQGFKWPLTFGGGTKLEITRSDAQPSVFLFQPSLDELHTGSASIVCILNDFYPKEVNVKWKVDGVVQNKGIQESTTEQNSKDSTYSLSSTLTMSSTEYQSHEKFSCEVTHKSLASTLVKSFNRSECQRE
notes: Printed '1377L' read as I377L; IgG1a constant domain with MALA mutations (M234A, L244A as printed); variable domains from WO 2023/97275; also called S428L, 1377L
B4: IgG with feline IgG1a Fc variant S428L, I377Y (antibody)
heavy: DVQLVESGGDLVKPGGSLRLTCVASGLSLTSDSMSWVRQAPGKGLQWVSTLWSNRGTYYTDSVKGRFTISKDNAENTLYLQMNNLKTEDTATYYCASIYYYEADYLHWYFDFWGQGALVTVSSASTTAPSVFPLAPSCGTTSGATVALACLVLGYFPEPVTVSWNSGALTSGVHTFPAVLQASGLYSLSSMVTVPSSRWLSDTFTCNVAHPPSNTKVDKTVRKTDHPPGPKPCDCPKCPPPEAAGGPSIFIFPPKPKDTLSISRTPEVTCLVVDLGPDDSDVQITWFVDNTQVYTAKTSPREEQFNSTYRVVSVLPILHQDWLKGKEFKCKVNSKSLPSPIERTISKAKGQPHEPQVYVLPPAQEELSRNKVSVTCLIKSFHPPDYAVEWEITGQPEPENNYRTTPPQLDSDGTYFVYSKLSVDRSHWQRGNTYTCSVLHEALHSHHTQKSLTQSPG
light: EIQMTQSPTSLSASVGDRVTITCRASEGIANNLSWYQQTPGKAPKLLIYATSNLHSGVPSRFSGSGSGTDFTLTISSLQPEDFATYYCQQGFKWPLTFGGGTKLEITRSDAQPSVFLFQPSLDELHTGSASIVCILNDFYPKEVNVKWKVDGVVQNKGIQESTTEQNSKDSTYSLSSTLTMSSTEYQSHEKFSCEVTHKSLASTLVKSFNRSECQRE
notes: Printed '1377Y' read as I377Y; IgG1a constant domain with MALA mutations (M234A, L244A as printed); variable domains from WO 2023/97275; also called S428L, 1377Y
B5: IgG with feline IgG1a Fc variant S428L, L309D (antibody)
heavy: DVQLVESGGDLVKPGGSLRLTCVASGLSLTSDSMSWVRQAPGKGLQWVSTLWSNRGTYYTDSVKGRFTISKDNAENTLYLQMNNLKTEDTATYYCASIYYYEADYLHWYFDFWGQGALVTVSSASTTAPSVFPLAPSCGTTSGATVALACLVLGYFPEPVTVSWNSGALTSGVHTFPAVLQASGLYSLSSMVTVPSSRWLSDTFTCNVAHPPSNTKVDKTVRKTDHPPGPKPCDCPKCPPPEAAGGPSIFIFPPKPKDTLSISRTPEVTCLVVDLGPDDSDVQITWFVDNTQVYTAKTSPREEQFNSTYRVVSVLPIDHQDWLKGKEFKCKVNSKSLPSPIERTISKAKGQPHEPQVYVLPPAQEELSRNKVSVTCLIKSFHPPDIAVEWEITGQPEPENNYRTTPPQLDSDGTYFVYSKLSVDRSHWQRGNTYTCSVLHEALHSHHTQKSLTQSPG
light: EIQMTQSPTSLSASVGDRVTITCRASEGIANNLSWYQQTPGKAPKLLIYATSNLHSGVPSRFSGSGSGTDFTLTISSLQPEDFATYYCQQGFKWPLTFGGGTKLEITRSDAQPSVFLFQPSLDELHTGSASIVCILNDFYPKEVNVKWKVDGVVQNKGIQESTTEQNSKDSTYSLSSTLTMSSTEYQSHEKFSCEVTHKSLASTLVKSFNRSECQRE
notes: as for B1
B6: IgG with feline IgG1a Fc variant S428L, R301L (antibody)
heavy: DVQLVESGGDLVKPGGSLRLTCVASGLSLTSDSMSWVRQAPGKGLQWVSTLWSNRGTYYTDSVKGRFTISKDNAENTLYLQMNNLKTEDTATYYCASIYYYEADYLHWYFDFWGQGALVTVSSASTTAPSVFPLAPSCGTTSGATVALACLVLGYFPEPVTVSWNSGALTSGVHTFPAVLQASGLYSLSSMVTVPSSRWLSDTFTCNVAHPPSNTKVDKTVRKTDHPPGPKPCDCPKCPPPEAAGGPSIFIFPPKPKDTLSISRTPEVTCLVVDLGPDDSDVQITWFVDNTQVYTAKTSPREEQFNSTYLVVSVLPILHQDWLKGKEFKCKVNSKSLPSPIERTISKAKGQPHEPQVYVLPPAQEELSRNKVSVTCLIKSFHPPDIAVEWEITGQPEPENNYRTTPPQLDSDGTYFVYSKLSVDRSHWQRGNTYTCSVLHEALHSHHTQKSLTQSPG
light: EIQMTQSPTSLSASVGDRVTITCRASEGIANNLSWYQQTPGKAPKLLIYATSNLHSGVPSRFSGSGSGTDFTLTISSLQPEDFATYYCQQGFKWPLTFGGGTKLEITRSDAQPSVFLFQPSLDELHTGSASIVCILNDFYPKEVNVKWKVDGVVQNKGIQESTTEQNSKDSTYSLSSTLTMSSTEYQSHEKFSCEVTHKSLASTLVKSFNRSECQRE
notes: as for B1
B7: IgG with feline IgG1a Fc variant S428L, R301V (antibody)
heavy: DVQLVESGGDLVKPGGSLRLTCVASGLSLTSDSMSWVRQAPGKGLQWVSTLWSNRGTYYTDSVKGRFTISKDNAENTLYLQMNNLKTEDTATYYCASIYYYEADYLHWYFDFWGQGALVTVSSASTTAPSVFPLAPSCGTTSGATVALACLVLGYFPEPVTVSWNSGALTSGVHTFPAVLQASGLYSLSSMVTVPSSRWLSDTFTCNVAHPPSNTKVDKTVRKTDHPPGPKPCDCPKCPPPEAAGGPSIFIFPPKPKDTLSISRTPEVTCLVVDLGPDDSDVQITWFVDNTQVYTAKTSPREEQFNSTYVVVSVLPILHQDWLKGKEFKCKVNSKSLPSPIERTISKAKGQPHEPQVYVLPPAQEELSRNKVSVTCLIKSFHPPDIAVEWEITGQPEPENNYRTTPPQLDSDGTYFVYSKLSVDRSHWQRGNTYTCSVLHEALHSHHTQKSLTQSPG
light: EIQMTQSPTSLSASVGDRVTITCRASEGIANNLSWYQQTPGKAPKLLIYATSNLHSGVPSRFSGSGSGTDFTLTISSLQPEDFATYYCQQGFKWPLTFGGGTKLEITRSDAQPSVFLFQPSLDELHTGSASIVCILNDFYPKEVNVKWKVDGVVQNKGIQESTTEQNSKDSTYSLSSTLTMSSTEYQSHEKFSCEVTHKSLASTLVKSFNRSECQRE
notes: as for B1
B8: IgG with feline IgG1a Fc variant S428L, R301Y (antibody)
heavy: DVQLVESGGDLVKPGGSLRLTCVASGLSLTSDSMSWVRQAPGKGLQWVSTLWSNRGTYYTDSVKGRFTISKDNAENTLYLQMNNLKTEDTATYYCASIYYYEADYLHWYFDFWGQGALVTVSSASTTAPSVFPLAPSCGTTSGATVALACLVLGYFPEPVTVSWNSGALTSGVHTFPAVLQASGLYSLSSMVTVPSSRWLSDTFTCNVAHPPSNTKVDKTVRKTDHPPGPKPCDCPKCPPPEAAGGPSIFIFPPKPKDTLSISRTPEVTCLVVDLGPDDSDVQITWFVDNTQVYTAKTSPREEQFNSTYYVVSVLPILHQDWLKGKEFKCKVNSKSLPSPIERTISKAKGQPHEPQVYVLPPAQEELSRNKVSVTCLIKSFHPPDIAVEWEITGQPEPENNYRTTPPQLDSDGTYFVYSKLSVDRSHWQRGNTYTCSVLHEALHSHHTQKSLTQSPG
light: EIQMTQSPTSLSASVGDRVTITCRASEGIANNLSWYQQTPGKAPKLLIYATSNLHSGVPSRFSGSGSGTDFTLTISSLQPEDFATYYCQQGFKWPLTFGGGTKLEITRSDAQPSVFLFQPSLDELHTGSASIVCILNDFYPKEVNVKWKVDGVVQNKGIQESTTEQNSKDSTYSLSSTLTMSSTEYQSHEKFSCEVTHKSLASTLVKSFNRSECQRE
notes: as for B1
B9: IgG with feline IgG1a Fc variant S428L, R392D (antibody)
heavy: DVQLVESGGDLVKPGGSLRLTCVASGLSLTSDSMSWVRQAPGKGLQWVSTLWSNRGTYYTDSVKGRFTISKDNAENTLYLQMNNLKTEDTATYYCASIYYYEADYLHWYFDFWGQGALVTVSSASTTAPSVFPLAPSCGTTSGATVALACLVLGYFPEPVTVSWNSGALTSGVHTFPAVLQASGLYSLSSMVTVPSSRWLSDTFTCNVAHPPSNTKVDKTVRKTDHPPGPKPCDCPKCPPPEAAGGPSIFIFPPKPKDTLSISRTPEVTCLVVDLGPDDSDVQITWFVDNTQVYTAKTSPREEQFNSTYRVVSVLPILHQDWLKGKEFKCKVNSKSLPSPIERTISKAKGQPHEPQVYVLPPAQEELSRNKVSVTCLIKSFHPPDIAVEWEITGQPEPENNYDTTPPQLDSDGTYFVYSKLSVDRSHWQRGNTYTCSVLHEALHSHHTQKSLTQSPG
light: EIQMTQSPTSLSASVGDRVTITCRASEGIANNLSWYQQTPGKAPKLLIYATSNLHSGVPSRFSGSGSGTDFTLTISSLQPEDFATYYCQQGFKWPLTFGGGTKLEITRSDAQPSVFLFQPSLDELHTGSASIVCILNDFYPKEVNVKWKVDGVVQNKGIQESTTEQNSKDSTYSLSSTLTMSSTEYQSHEKFSCEVTHKSLASTLVKSFNRSECQRE
notes: as for B1

biological target: feline FcRn (soluble portion of large subunit p51 isoform X1 with C-terminal 6xHis-tag, co-expressed with feline beta2-microglobulin with C-terminal STREP-TAG II) (feline) (UniProt Q5MGS7); assay: SPR, pH 5.9

binding, binds:
B1, B2, B3, B4, B5, B6, B7, B8, B9
